Measured values: US20180368404A1, “3-PYRIDYL HETEROBICYCLIC COMPOUND FOR CONTROLLING INVERTEBRATE PESTS” (BASF SE, priority 2014, published 2018)
Some entries share one result that the patent states for a list of compounds.

Assays:
Assay type in all cases: in vivo
[1] = tested on: Vetch Aphid (Megoura viciae); experiment: Vetch aphid bean leaf disk microtiter test; conditions: 800 ppm; leaf disks sprayed with 2.5 μl; 6 days
Protocol: The active compounds were formulated in 3:1 (vol:vol) water: DMSO with different concentrations of formulated compounds.
Bean leaf disks were placed into microtiterplates filled with 0.8% agar-agar and 2.5 ppm OPUS™. The leaf disks were sprayed with 2.5 μl of the test solution and 5 to 8 adult aphids were placed into the microtiter plates which were then closed and kept at 23±1° C. and 50±5% relative humidity under fluorescent light for 6 days. Mortality was assessed on the basis of vital, reproduced aphids. Aphid mortality and fecundity was then visually assessed.

[2] = tested on: Boll Weevil (Anthonomus grandis); experiment: Boll weevil insect diet microtiter test (eggs, larvae); conditions: 800 ppm; 20 μl sprayed onto insect diet; egg and larval mortality after 5 days
[3] = tested on: Cowpea Aphid (Aphis craccivora); experiment: Cowpea aphid spray test on potted cowpea plants; conditions: 500 ppm, population reduction assessed after 24, 72 and 120 hours
Protocol: If not otherwise specified the test solutions were prepared as follows:
The active compound was dissolved at the desired concentration in a mixture of 1:1 (vol:vol) distilled water: acetone. The test solution was prepared at the day of use and in general at concentrations of ppm (wt/vol).
Potted cowpea plants colonized with 100-150 aphids of various stages were sprayed after the pest population had been recorded. Population reduction was assessed after 24, 72, and 120 hours.

[4] = tested on: Green Peach Aphid (Myzus persicae); experiment: Green peach aphid spray test on infested bell pepper plants; conditions: 300 ppm, after 5 days
Protocol: (§1) The active compounds were formulated in cyclohexanone as a 10,000 ppm solution supplied in 1.3 ml ABgene® tubes. These tubes were inserted into an automated electrostatic sprayer equipped with an atomizing nozzle and they served as stock solutions for which lower dilutions were made in 1:1 (vol:vol) water: acetone. A nonionic surfactant (Kinetic®) was included in the solution at a volume of 0.01% (v/v).
Bell pepper plants at the first true-leaf stage were infested prior to treatment by placing heavily infested leaves from the main colony on top of the treatment plants. Aphids were allowed to transfer overnight to accomplish an infestation of 30-50 aphids per plant and the host leaves were removed. The infested plants were then sprayed by an automated electrostatic plant sprayer equipped with an atomizing spray nozzle. The plants were dried in the sprayer fume hood, removed, and then maintained in a growth room under fluorescent lighting in a 24 hour photoperiod at 25° C. and 20-40% relative humidity. Aphid mortality on the treated plants, relative to mortality on untreated control plants, was determined after 5 days.

[5] = tested on: Silverleaf Whitefly (Bemisia argentifolii, Adult); experiment: Silverleaf whitefly test on sprayed cotton plants; conditions: 300 ppm; 3 days after treatment
Protocol: as §1
Cotton plants at the cotyledon stage (one plant per pot) were sprayed by an automated electrostatic plant sprayer equipped with an atomizing spray nozzle. The plants were dried in the sprayer fume hood and then removed from the sprayer. Each pot was placed into a plastic cup and 10 to 12 whitefly adults (approximately 3-5 days […]) were introduced. The insects were collected using an aspirator and 0.6 cm, nontoxic Tygon® tubing (R-3603) connected to a barrier pipette tip. The tip, containing the collected insects, was then gently inserted into the soil containing the treated plant, allowing insects to crawl out of the tip to reach the foliage for feeding. Cups were covered with a reusable screened lid (150-micron mesh polyester screen PeCap from Tetko, Inc.). Test plants were maintained in a growth room at 25° C. and 20-40% relative humidity for 3 days, avoiding direct exposure to fluorescent light (24 hour photoperiod) to prevent trapping of heat inside the cup. Mortality was assessed 3 days after treatment, compared to untreated control plants.

[6] = tested on: Cotton Aphid (Aphis gossypii, Mixed Life Stages); experiment: Cotton aphid spray test on infested cotton plants; conditions: 300 ppm, after 5 days
Protocol: as §1
Cotton plants at the cotyledon stage were infested with aphids prior to treatment by placing a heavily infested leaf from the main aphid colony on top of each cotyledon. Aphids were allowed to transfer overnight to accomplish an infestation of 80-100 aphids per plant and the host leaf was removed. The infested plants were then sprayed by an automated electrostatic plant sprayer equipped with an atomizing spray nozzle. The plants were dried in the sprayer fume hood, removed from the sprayer, and then maintained in a growth room under fluorescent lighting in a 24-hr photoperiod at 25° C. and 20-40% relative humidity. Aphid mortality on the treated plants, relative to mortality on untreated control plants, was determined after 5 days.

Measured: mortality in comparison with untreated controls

O=S(=O)(CC(F)(F)F)c1ccc2nc(-c3cccnc3)cn2n1 [I-E31]
at least 75%: [1] | [2] | [3]

C=CCOc1ccc2nn(-c3cccnc3)cc2n1 [I-D43]
not listed: [2]
at least 75%: all other assays above

CCOc1ccc2nc(-c3cccnc3)cn2n1 [I-E33]
not listed: [2]
at least 75%: all other assays above

C#CC(C)Oc1ccc2nn(-c3cccnc3)cc2n1 (racemic) [I-D19]
not listed: [2]
at least 75%: all other assays above

CC(C)Sc1ccc2nn(-c3cccnc3)cc2n1 [I-D17]
not listed: [2]
at least 75%: all other assays above

CCC(COCC(F)(F)F)Oc1ccc2nn(-c3cccnc3)cc2n1 (racemic) [I-D11]
not listed: [3]
at least 75%: all other assays above

CC(C)Sc1ccc2nn(-c3cccnc3)cc2n1 [I-D47]
at least 75%: [2]

CC[S+]([O-])c1ccc2nc(-c3cccnc3)cn2n1 (centres unmarked) [I-E5]
not listed: [2]
at least 75%: all other assays above

C=CCSCCCSc1ccc2nc(-c3cccnc3)cn2n1 [I-E17]
not listed: [2]
at least 75%: all other assays above

c1cncc(-n2cc3nc(OC4CCC4)ccc3n2)c1 [I-D45]
at least 75%: all assays above

FC(F)C(F)(F)COc1ccc2nn(-c3cccnc3)cc2n1 [I-D14]
not listed: [2]
at least 75%: all other assays above

FC(F)(F)CSc1ccc2nc(-c3cccnc3)cn2n1 [I-E37]
not listed: [2]
at least 75%: all other assays above

C=COCC(C)Oc1ccc2nn(-c3cccnc3)cc2n1 (centres unmarked) [I-D48]
not listed: [2]
at least 75%: all other assays above

C#CCOc1ccc2nn(-c3cccnc3)cc2n1 [I-D9]
not listed: [2]
at least 75%: all other assays above

c1cncc(Oc2ccc3nn(-c4cccnc4)cc3c2)c1 [I-B1]
not listed: [2]
at least 75%: all other assays above

C#CCOc1ccc2nc(-c3cccnc3)cn2n1 [I-E23]
not listed: [3]
at least 75%: all other assays above

CC1OCC(Oc2ccc3nn(-c4cccnc4)cc3n2)CO1 (centres unmarked) [I-D51]
not listed: [2]
at least 75%: all other assays above

CCSc1ccc2nc(-c3cccnc3)cn2n1 [I-E1]
not listed: [2]
at least 75%: all other assays above

CC(C)C(C)Sc1ccc2nn(-c3cccnc3)cc2n1 (racemic) [I-D23]
not listed: [2]
at least 75%: all other assays above

CS(=O)(=O)CCOc1ccc2nn(-c3cccnc3)cc2n1 [I-D30]
not listed: [5]
at least 75%: all other assays above

COCC(C)Oc1ccc2nn(-c3cccnc3)cc2n1 (centres unmarked) [I-D52]
not listed: [2]
at least 75%: all other assays above

c1cncc(-n2cc3nc(OC4CCC5(CC4)OCCO5)ccc3n2)c1 [I-D22]
not listed: [2]
at least 75%: all other assays above

FC1(F)CC1COc1ccc2nc(-c3cccnc3)cn2n1 (centres unmarked) [I-E11]
not listed: [3]
at least 75%: all other assays above
